Results: the supplement of paper PMC10849652
The other results are listed elsewhere or left out.

Sequences of proteins named here, by UniProt entry; tags and fusion partners are left off. A change or cut given only in a name is not applied to a line headed by its entry.
UniProt Q9Y2Z0: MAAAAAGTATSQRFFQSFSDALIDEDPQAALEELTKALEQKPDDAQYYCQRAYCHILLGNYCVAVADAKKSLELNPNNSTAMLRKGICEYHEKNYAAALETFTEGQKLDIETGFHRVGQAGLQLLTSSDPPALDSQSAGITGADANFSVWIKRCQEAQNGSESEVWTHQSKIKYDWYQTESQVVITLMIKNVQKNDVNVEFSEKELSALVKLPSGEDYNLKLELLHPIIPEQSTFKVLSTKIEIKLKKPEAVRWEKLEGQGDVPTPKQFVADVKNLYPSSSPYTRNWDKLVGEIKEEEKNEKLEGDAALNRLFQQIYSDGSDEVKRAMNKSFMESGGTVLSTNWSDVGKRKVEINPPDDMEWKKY
UniProt Q9NRP7: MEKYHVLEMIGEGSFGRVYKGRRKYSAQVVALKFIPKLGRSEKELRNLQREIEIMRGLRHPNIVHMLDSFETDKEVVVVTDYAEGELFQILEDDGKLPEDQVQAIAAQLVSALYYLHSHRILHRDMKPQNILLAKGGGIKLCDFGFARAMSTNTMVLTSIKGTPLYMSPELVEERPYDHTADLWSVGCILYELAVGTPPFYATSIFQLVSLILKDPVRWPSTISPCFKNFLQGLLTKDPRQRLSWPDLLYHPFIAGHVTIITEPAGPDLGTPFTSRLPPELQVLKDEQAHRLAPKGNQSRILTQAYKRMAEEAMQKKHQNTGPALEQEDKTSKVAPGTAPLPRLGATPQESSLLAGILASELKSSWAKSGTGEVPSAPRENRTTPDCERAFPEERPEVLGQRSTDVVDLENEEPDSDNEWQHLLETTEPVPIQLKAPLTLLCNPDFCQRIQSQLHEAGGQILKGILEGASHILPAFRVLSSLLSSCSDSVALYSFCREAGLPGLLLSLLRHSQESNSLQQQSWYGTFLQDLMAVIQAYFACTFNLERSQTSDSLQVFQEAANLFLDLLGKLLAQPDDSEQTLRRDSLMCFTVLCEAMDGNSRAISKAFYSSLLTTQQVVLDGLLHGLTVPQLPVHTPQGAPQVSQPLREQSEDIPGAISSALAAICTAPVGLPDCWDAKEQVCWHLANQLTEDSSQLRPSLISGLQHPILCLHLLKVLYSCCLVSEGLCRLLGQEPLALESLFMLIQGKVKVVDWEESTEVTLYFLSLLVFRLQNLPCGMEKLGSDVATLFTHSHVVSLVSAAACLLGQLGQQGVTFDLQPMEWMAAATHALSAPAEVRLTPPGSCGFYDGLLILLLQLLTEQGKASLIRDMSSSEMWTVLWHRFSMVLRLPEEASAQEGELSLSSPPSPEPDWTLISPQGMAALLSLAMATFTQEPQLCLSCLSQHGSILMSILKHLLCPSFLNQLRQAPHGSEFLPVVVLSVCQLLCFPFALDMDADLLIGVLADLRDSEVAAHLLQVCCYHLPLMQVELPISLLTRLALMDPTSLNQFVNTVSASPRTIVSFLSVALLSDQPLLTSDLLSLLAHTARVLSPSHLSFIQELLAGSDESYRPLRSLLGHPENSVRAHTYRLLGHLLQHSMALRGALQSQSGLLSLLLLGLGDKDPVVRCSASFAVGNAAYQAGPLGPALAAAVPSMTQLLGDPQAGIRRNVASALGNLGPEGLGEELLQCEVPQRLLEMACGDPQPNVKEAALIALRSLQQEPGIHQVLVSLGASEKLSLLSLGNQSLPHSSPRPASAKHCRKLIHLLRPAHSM
UniProt Q9H7L9: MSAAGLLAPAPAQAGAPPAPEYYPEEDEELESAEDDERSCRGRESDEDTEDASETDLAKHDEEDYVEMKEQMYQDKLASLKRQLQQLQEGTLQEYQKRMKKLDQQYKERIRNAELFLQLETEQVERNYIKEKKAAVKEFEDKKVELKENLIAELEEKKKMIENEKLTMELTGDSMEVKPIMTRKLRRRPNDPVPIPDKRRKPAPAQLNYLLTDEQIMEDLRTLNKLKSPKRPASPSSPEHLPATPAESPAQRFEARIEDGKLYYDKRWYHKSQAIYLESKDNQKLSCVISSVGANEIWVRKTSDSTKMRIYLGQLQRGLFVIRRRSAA
UniProt P46977: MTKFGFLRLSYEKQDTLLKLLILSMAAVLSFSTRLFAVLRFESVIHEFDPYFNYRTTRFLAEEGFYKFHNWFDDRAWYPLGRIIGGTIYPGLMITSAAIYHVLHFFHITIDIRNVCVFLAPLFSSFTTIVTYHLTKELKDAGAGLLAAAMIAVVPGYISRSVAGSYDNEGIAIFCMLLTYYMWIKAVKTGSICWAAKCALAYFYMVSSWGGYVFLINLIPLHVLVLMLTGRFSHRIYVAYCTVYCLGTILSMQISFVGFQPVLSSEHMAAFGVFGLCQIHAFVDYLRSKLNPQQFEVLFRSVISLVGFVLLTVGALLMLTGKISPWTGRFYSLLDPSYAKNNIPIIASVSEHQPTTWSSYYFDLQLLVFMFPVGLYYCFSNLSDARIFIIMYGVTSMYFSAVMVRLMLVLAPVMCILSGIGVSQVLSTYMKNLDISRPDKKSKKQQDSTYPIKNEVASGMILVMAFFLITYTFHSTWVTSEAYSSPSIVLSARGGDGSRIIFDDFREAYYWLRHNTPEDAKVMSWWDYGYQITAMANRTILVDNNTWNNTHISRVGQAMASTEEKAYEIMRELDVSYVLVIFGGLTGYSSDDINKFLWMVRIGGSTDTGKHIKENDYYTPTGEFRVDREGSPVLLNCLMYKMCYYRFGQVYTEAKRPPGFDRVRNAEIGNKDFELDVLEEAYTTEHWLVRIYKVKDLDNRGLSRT
UniProt P50225: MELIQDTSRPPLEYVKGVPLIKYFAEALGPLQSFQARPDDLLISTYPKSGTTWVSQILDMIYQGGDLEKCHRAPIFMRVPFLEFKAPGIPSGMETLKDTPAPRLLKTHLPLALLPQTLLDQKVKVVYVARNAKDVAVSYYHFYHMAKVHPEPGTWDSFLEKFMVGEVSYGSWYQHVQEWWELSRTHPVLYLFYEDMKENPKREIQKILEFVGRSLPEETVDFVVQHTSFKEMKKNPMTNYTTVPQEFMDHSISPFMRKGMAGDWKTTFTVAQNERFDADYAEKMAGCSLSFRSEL
UniProt Q8IWZ8: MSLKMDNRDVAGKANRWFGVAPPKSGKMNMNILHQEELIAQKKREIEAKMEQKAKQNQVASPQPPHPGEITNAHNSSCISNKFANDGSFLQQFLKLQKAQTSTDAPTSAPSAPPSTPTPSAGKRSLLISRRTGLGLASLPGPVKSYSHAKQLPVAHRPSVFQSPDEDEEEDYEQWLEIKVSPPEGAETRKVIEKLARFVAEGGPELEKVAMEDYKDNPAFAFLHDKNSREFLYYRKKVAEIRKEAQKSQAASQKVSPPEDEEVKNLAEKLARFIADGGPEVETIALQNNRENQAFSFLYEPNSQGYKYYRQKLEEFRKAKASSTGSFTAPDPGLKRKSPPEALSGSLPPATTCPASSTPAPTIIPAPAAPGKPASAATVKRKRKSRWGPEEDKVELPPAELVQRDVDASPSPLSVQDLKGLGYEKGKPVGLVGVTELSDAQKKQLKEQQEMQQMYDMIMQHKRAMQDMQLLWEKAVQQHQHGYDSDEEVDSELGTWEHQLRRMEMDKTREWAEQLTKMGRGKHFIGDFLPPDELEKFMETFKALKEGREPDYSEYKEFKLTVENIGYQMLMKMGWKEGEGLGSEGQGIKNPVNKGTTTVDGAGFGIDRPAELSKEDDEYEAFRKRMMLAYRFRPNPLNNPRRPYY
UniProt O60499: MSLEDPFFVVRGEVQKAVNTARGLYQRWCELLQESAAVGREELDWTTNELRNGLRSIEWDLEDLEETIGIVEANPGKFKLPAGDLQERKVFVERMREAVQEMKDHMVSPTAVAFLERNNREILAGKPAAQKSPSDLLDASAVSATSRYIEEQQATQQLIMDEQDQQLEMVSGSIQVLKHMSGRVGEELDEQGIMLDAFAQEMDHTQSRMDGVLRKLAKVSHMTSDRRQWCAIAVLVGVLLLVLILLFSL
UniProt Q13188: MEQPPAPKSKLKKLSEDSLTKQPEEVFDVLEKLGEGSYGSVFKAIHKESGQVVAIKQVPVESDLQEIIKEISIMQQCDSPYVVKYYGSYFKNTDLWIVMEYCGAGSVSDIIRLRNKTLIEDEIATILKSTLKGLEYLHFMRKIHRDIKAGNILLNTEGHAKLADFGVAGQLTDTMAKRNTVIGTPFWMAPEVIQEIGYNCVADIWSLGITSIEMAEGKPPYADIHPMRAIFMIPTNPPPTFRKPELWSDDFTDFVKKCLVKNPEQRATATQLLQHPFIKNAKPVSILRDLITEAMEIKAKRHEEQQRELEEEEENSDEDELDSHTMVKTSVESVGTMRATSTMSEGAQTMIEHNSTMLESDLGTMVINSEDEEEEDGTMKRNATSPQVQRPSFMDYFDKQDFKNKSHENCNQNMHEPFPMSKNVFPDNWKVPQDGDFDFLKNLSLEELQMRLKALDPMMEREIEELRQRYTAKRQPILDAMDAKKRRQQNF
UniProt O95926: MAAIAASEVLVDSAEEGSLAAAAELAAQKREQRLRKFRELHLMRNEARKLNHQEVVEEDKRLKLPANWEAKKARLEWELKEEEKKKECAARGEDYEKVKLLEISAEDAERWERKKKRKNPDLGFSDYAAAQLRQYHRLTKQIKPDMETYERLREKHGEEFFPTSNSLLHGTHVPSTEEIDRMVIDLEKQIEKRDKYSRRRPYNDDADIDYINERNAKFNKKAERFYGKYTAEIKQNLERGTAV
UniProt Q86Y82: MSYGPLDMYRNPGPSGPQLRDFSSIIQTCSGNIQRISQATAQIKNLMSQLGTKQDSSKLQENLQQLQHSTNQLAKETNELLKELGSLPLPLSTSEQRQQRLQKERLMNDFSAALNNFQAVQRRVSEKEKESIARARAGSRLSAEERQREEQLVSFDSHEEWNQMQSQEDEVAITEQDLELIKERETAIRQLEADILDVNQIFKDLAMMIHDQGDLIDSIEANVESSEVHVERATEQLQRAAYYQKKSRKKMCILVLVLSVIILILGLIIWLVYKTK
UniProt Q12962, whole entry, looked up: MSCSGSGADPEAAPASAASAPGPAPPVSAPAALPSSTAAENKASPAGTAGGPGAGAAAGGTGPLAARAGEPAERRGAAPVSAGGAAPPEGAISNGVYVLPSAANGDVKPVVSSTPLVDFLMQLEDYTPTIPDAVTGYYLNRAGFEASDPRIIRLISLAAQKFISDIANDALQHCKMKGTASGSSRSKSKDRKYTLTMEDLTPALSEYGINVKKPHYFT
UniProt O00186: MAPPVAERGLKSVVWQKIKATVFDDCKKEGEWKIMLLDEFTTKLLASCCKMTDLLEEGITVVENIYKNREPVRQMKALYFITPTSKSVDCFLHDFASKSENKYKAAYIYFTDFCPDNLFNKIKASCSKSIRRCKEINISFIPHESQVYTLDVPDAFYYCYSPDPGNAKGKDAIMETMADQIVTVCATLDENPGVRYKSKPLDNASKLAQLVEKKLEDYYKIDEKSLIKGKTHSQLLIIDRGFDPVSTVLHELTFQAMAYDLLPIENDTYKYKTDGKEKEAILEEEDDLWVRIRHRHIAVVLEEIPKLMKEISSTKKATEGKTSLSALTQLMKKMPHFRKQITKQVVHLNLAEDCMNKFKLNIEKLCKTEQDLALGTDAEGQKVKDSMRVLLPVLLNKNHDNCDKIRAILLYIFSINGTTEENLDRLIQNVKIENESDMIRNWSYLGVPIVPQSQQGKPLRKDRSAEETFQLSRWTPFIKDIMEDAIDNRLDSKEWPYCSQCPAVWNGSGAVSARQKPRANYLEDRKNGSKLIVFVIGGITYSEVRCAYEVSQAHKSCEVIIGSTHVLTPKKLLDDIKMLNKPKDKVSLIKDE
UniProt Q15208: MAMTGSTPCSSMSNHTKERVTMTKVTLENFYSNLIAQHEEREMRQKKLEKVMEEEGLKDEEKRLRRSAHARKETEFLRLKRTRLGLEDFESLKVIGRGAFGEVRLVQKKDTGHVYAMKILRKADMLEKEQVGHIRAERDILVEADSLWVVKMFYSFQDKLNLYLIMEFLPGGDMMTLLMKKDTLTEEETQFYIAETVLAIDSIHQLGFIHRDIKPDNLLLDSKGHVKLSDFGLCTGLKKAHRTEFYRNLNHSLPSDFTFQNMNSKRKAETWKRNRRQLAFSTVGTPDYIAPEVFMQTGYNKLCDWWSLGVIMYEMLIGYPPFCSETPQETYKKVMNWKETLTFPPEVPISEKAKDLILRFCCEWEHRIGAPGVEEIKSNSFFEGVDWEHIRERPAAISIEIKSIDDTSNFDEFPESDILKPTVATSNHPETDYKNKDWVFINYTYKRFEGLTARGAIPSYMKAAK

Legend:
Assay in all cases: log2 fold change, soluble protein after heating vs DMSO (PISA); higher = thermal stabilisation; K562 lysate, 10 uM; active = over 0.2 and 3.5 SD of the protein, either way, in both replicates (recomputed)
[1] = compound: C#Cc1cccc(Nc2ncnc3cc(OCCOC)c(OCCOC)cc23)c1 [erlotinib]
How it was run: (§1)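 Log-two fold change in thermal stability relative to solvent controls is reported from duplicates. For each sample, crude K562 extract from dounce-homogenised pellets in PBS pH 7.4 with 1 mM MgCl2, at 1 mg/mL protein, was treated with 10 μM compound for 30 min. Aliquots heated for 3 min across 48°C-58°C were pooled, brought to 0.5% NP-40 at 4°C and cleared at 21,000xg for 90 min. The supernatant was quantified by TMTpro 16plex LC-MS/MS with channel sums equalised.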

[2] = compound: C/C(=N\NC(=O)C1=CC(=CC=C1)S(=O)(=O)N2CCOCC2)/C3=C(C=CC(=C3)Cl)O
How it was run: as §1

[3] = compound: C1=CC(=CC=C1C2=NC3=C(N2)C=C(C=C3)C(=O)N)OC4=CC=C(C=C4)Cl
How it was run: as §1

[4] = compound: C1=CC2=C(C=CC(=C2)/C=C\3/C(=O)NC(=NCC4=CC=CS4)S3)N=C1
How it was run: as §1

[5] = compound: C1=CC2=NC=CN=C2C=C1/C=C/3\C(=O)NC(=O)S3
How it was run: as §1

[6] = compound: C1=CC=C(C=C1)C2=NC(=C(N2)C3=CC=NC=C3)C4=CC(=C(C=C4)Cl)O
How it was run: as §1

[7] = compound: C1=CC=C2C(=C1)C3=NNC4=CC=CC(=C43)C2=O
How it was run: as §1

[8] = compound: C1CCN(C1)C(=O)NC2=CC=CC(=C2)NC3=NC=C(C(=N3)NCCC4=CN=CN4)Br
How it was run: as §1

[9] = compound: C1CN(CCC1(CC2=CC=C(C=C2)Cl)N)C3=NC=NC4=C3C=CN4
How it was run: as §1

[10] = compound: C1COCCN1CCN2C3=CC=CC=C3N=C2NC(=O)C4=CC(=CC=C4)[N+](=O)[O-] [IRAK-1-4 Inhibitor I]
How it was run: as §1

[11] = compound: C=CC(=O)N1CCC[C@@H](n2nc(-c3ccc(Oc4ccccc4)cc3)c3c(N)ncnc32)C1 [ibrutinib]
How it was run: as §1

[12] = compound: CC(=O)c1cnc2ccc(-c3cc(Cl)c(O)c(Cl)c3)nc2c1N[C@H]1CC[C@H](CN(C)C)CC1
How it was run: as §1

[13] = compound: CC(C)(C)Cn1c(N)nc2ccc(-c3[nH]c(C(C)(C)C)nc3-c3ccc(F)cc3)nc21 [ralimetinib]
How it was run: as §1

[14] = compound: CC(C)(O)CC(=O)NCCn1ccc2ncnc(Nc3ccc(Oc4cccc(C(F)(F)F)c4)c(Cl)c3)c21
How it was run: as §1

[15] = compound: CC(C)C1=C2N=C(C=C(N2N=C1)NCC3=CC=CC=C3)NCCCCCCN
How it was run: as §1

[16] = compound: CC1=C(C(CC(=O)N1)C2=CC=C(C=C2)C(F)(F)F)C(=O)NC3=C(C=C4C(=C3)C=NN4)F
How it was run: as §1

[17] = compound: CC1=C(C2=C(C=C1)C(=O)C3=CC=CC=C3N2CCCN)C
How it was run: as §1

[18] = compound: CC1=C(C=C(C=C1)NC(=O)C2=CC(=CC=C2)C(C)(C)C#N)NC3=CC4=C(C=C3)N=CN(C4=O)C
How it was run: as §1

[19] = compound: CC1=C(C=C(C=C1)NC(=O)C2=CC(=CC=C2)N(C)C)NC(=O)C3=CC=C(C=C3)O
How it was run: as §1

[20] = compound: CC1=CC=C(C=C1)SC2=C3C=C(SC3=CN=C2)C(=O)N
How it was run: as §1

Row | Target | log2 fold change [1] | log2 fold change [2] | log2 fold change [3] | log2 fold change [4] | log2 fold change [5] | log2 fold change [6] | log2 fold change [7] | log2 fold change [8] | log2 fold change [9] | log2 fold change [10] | log2 fold change [11] | log2 fold change [12] | log2 fold change [13] | log2 fold change [14] | log2 fold change [15] | log2 fold change [16] | log2 fold change [17] | log2 fold change [18] | log2 fold change [19] | log2 fold change [20]
1 | TAF4B (UniProt Q92750) | inactive: 0.048 | inactive: -0.159 | inactive: -0.076 | inactive: -0.082 | inactive: -0.039 | inactive: -0.14 | inactive: 0.152 | inactive: 0.067 | inactive: 0.17 | inactive: 0.244 | inactive: 0.054 | inactive: 0.028 | inactive: 0.291 | inactive: -0.133 | inactive: -0.042 | inactive: -0.063 | inactive: -0.004 | inactive: 0.018 | inactive: -0.184 | inactive: 0.163
2 | SUGT1 (UniProt Q9Y2Z0) | inactive: -0.01 | inactive: -0.001 | inactive: 0.018 | inactive: -0.023 | inactive: -0.024 | inactive: 0.055 | inactive: 0.022 | inactive: -0.017 | inactive: -0.02 | inactive: -0.027 | inactive: 0.006 | inactive: 0.018 | inactive: -0.003 | inactive: 0.035 | inactive: 0.01 | inactive: 0.004 | inactive: 0.006 | inactive: 0.003 | inactive: 0.029 | inactive: -0.007
3 | STK36 (UniProt Q9NRP7) | inactive: 0.114 | inactive: -0.06 | inactive: 0.251 | inactive: -0.199 | inactive: -0.169 | inactive: -0.075 | inactive: -0.241 | inactive: -0.049 | inactive: 0.185 | inactive: 0.205 | inactive: 0.019 | inactive: -0.182 | inactive: -0.087 | inactive: -0.416 | inactive: 0.071 | inactive: -0.058 | inactive: -0.176 | inactive: 0.408 | inactive: -0.004 | inactive: -0.097
4 | SUDS3 (UniProt Q9H7L9) | inactive: 0.006 | inactive: 0.024 | inactive: 0.002 | inactive: 0.011 | inactive: -0.03 | inactive: 0.014 | inactive: -0.013 | inactive: -0.007 | inactive: 0.008 | inactive: -0.003 | inactive: 0.053 | inactive: 0.018 | inactive: 0.015 | inactive: -0.061 | inactive: 0.012 | inactive: 0.026 | inactive: -0.012 | inactive: 0.059 | inactive: 0.022 | inactive: -0.015
5 | STT3A (UniProt P46977) | inactive: -0.058 | inactive: -0.059 | inactive: -0.097 | inactive: 0.009 | inactive: -0.003 | inactive: -0.047 | inactive: -0.007 | inactive: -0.044 | inactive: -0.029 | inactive: -0.016 | inactive: -0.024 | inactive: 0.009 | inactive: 0.015 | inactive: -0.015 | inactive: -0.032 | inactive: 0.024 | inactive: 0.02 | inactive: -0.014 | inactive: -0.007 | inactive: 0.026
6 | SULT1A1 (UniProt P50225) | inactive: -0.045 | inactive: 0.08 | inactive: -0.014 | inactive: 0.069 | inactive: 0.048 | inactive: -0.011 | inactive: -0.061 | inactive: -0.026 | inactive: 0.018 | inactive: -0.04 | inactive: 0.02 | inactive: -0.027 | inactive: 0.028 | inactive: -0.03 | inactive: 0.03 | inactive: -0.009 | inactive: -0.06 | inactive: 0.022 | inactive: 0.047 | inactive: 0.006
7 | SUGP1 (UniProt Q8IWZ8) | inactive: -0.007 | inactive: -0.044 | inactive: 0.064 | inactive: -0.024 | inactive: 0 | inactive: -0.01 | inactive: 0.036 | inactive: -0.007 | inactive: -0.018 | inactive: 0.006 | inactive: 0.059 | inactive: 0.02 | inactive: -0.009 | inactive: 0.013 | inactive: -0.008 | inactive: 0.016 | inactive: 0.019 | inactive: -0.003 | inactive: -0.03 | inactive: -0.035
8 | STX10 (UniProt O60499) | inactive: -0.031 | inactive: 0.035 | inactive: 0.015 | inactive: 0.081 | inactive: -0.09 | inactive: -0.02 | inactive: -0.055 | inactive: -0.032 | inactive: 0.063 | inactive: 0.025 | inactive: 0.066 | inactive: -0.091 | inactive: 0.057 | inactive: -0.018 | inactive: -0.031 | inactive: -0.148 | inactive: -0.016 | inactive: 0.022 | inactive: 0.01 | inactive: -0.01
9 | STK3 isoform 2 (UniProt Q13188) | inactive: -0.009 | inactive: -0.1 | inactive: 0.012 | inactive: -0.07 | inactive: -0.001 | inactive: 0.016 | inactive: 0.181 | inactive: 0.157 | inactive: 0.031 | inactive: -0.005 | inactive: 0.11 | inactive: 0.364 | inactive: -0.001 | inactive: 0.037 | inactive: 0.026 | inactive: -0.005 | inactive: 0 | inactive: -0.025 | inactive: 0.016 | inactive: -0.073
10 | SYF2 (UniProt O95926) | inactive: 0 | inactive: 0.043 | inactive: 0.037 | inactive: -0.025 | inactive: -0.015 | inactive: 0.037 | inactive: 0.063 | inactive: -0.048 | inactive: 0 | inactive: -0.057 | inactive: 0.094 | inactive: 0.023 | inactive: -0.019 | inactive: 0.001 | inactive: -0.02 | inactive: -0.027 | inactive: -0.122 | inactive: 0.037 | inactive: 0.066 | inactive: -0.061
11 | STX12 (UniProt Q86Y82) | inactive: -0.039 | inactive: -0.011 | inactive: 0.038 | inactive: -0.043 | inactive: -0.028 | inactive: -0.009 | inactive: -0.043 | inactive: 0.029 | inactive: 0.039 | inactive: 0.006 | inactive: -0.018 | inactive: -0.035 | inactive: 0.001 | inactive: -0.005 | inactive: -0.017 | inactive: -0.018 | inactive: 0.019 | inactive: 0.003 | inactive: -0.008 | inactive: -0.03
12 | TAF10 (UniProt Q12962) | inactive: -0.025 | inactive: -0.08 | inactive: 0.137 | inactive: -0.036 | inactive: 0.069 | inactive: 0.042 | inactive: 0.102 | inactive: 0.02 | inactive: -0.004 | inactive: -0.013 | inactive: 0.161 | inactive: -0.043 | inactive: 0.05 | inactive: 0.069 | inactive: -0.018 | inactive: 0.03 | inactive: 0.019 | inactive: 0.042 | inactive: -0.089 | inactive: -0.041
13 | SUPT20H isoform 3 (UniProt Q8NEM7) | inactive: 0.069 | inactive: -0.099 | inactive: 0.269 | inactive: -0.018 | inactive: -0.114 | inactive: 0.287 | inactive: 0.223 | inactive: -0.116 | inactive: -0.064 | inactive: -0.007 | inactive: -0.316 | inactive: -0.062 | inactive: -0.045 | inactive: -0.209 | inactive: 0.017 | inactive: -0.025 | inactive: -0.091 | inactive: 0.13 | inactive: 0.018 | inactive: -0.118
14 | STXBP3 (UniProt O00186) | inactive: 0.015 | inactive: -0.026 | inactive: -0.027 | inactive: -0.003 | inactive: 0.012 | inactive: -0.003 | inactive: 0.001 | inactive: -0.01 | inactive: -0.008 | inactive: -0.01 | inactive: 0.021 | inactive: 0.02 | inactive: -0.01 | inactive: 0.011 | inactive: -0.013 | inactive: 0.001 | inactive: 0.016 | inactive: -0.042 | inactive: -0.018 | inactive: -0.007
15 | STK38 (UniProt Q15208) | inactive: -0.018 | inactive: -0.029 | inactive: -0.063 | inactive: -0.005 | inactive: 0.038 | inactive: 0.029 | inactive: 0.176 | inactive: -0.002 | inactive: 0.055 | inactive: -0.006 | inactive: 0.008 | active: 0.361 | inactive: 0.036 | inactive: 0.048 | inactive: 0.025 | inactive: 0.006 | inactive: 0.017 | inactive: 0.014 | inactive: -0.003 | inactive: 0.002
16 | SUPT5H (UniProt O00267) | inactive: 0.002 | inactive: 0.025 | inactive: 0.018 | inactive: 0.015 | inactive: -0.005 | inactive: -0.004 | inactive: -0.012 | inactive: -0.012 | inactive: 0.014 | inactive: -0.032 | inactive: -0.006 | inactive: -0.012 | inactive: -0.001 | inactive: 0.007 | inactive: 0.002 | inactive: -0.012 | inactive: -0.001 | inactive: -0.009 | inactive: 0.003 | inactive: 0.002

Part of the list above, as a markdown table.

| Row | Target | log2 fold change [1] | log2 fold change [2] | log2 fold change [3] | log2 fold change [4] | log2 fold change [5] | log2 fold change [6] | log2 fold change [7] | log2 fold change [8] | log2 fold change [9] | log2 fold change [10] | log2 fold change [11] | log2 fold change [12] | log2 fold change [13] | log2 fold change [14] | log2 fold change [15] | log2 fold change [16] | log2 fold change [17] | log2 fold change [18] | log2 fold change [19] | log2 fold change [20] |
| --- | --- | --- | --- | --- | --- | --- | --- | --- | --- | --- | --- | --- | --- | --- | --- | --- | --- | --- | --- | --- | --- |
| 2 | SUGT1 (UniProt Q9Y2Z0) | inactive: -0.01 | inactive: -0.001 | inactive: 0.018 | inactive: -0.023 | inactive: -0.024 | inactive: 0.055 | inactive: 0.022 | inactive: -0.017 | inactive: -0.02 | inactive: -0.027 | inactive: 0.006 | inactive: 0.018 | inactive: -0.003 | inactive: 0.035 | inactive: 0.01 | inactive: 0.004 | inactive: 0.006 | inactive: 0.003 | inactive: 0.029 | inactive: -0.007 |
| 3 | STK36 (UniProt Q9NRP7) | inactive: 0.114 | inactive: -0.06 | inactive: 0.251 | inactive: -0.199 | inactive: -0.169 | inactive: -0.075 | inactive: -0.241 | inactive: -0.049 | inactive: 0.185 | inactive: 0.205 | inactive: 0.019 | inactive: -0.182 | inactive: -0.087 | inactive: -0.416 | inactive: 0.071 | inactive: -0.058 | inactive: -0.176 | inactive: 0.408 | inactive: -0.004 | inactive: -0.097 |
